Assay results: publication PMC8674656
No constants are given. Whether binding was seen depends on the method and setting. In cells and extracts the contact can be indirect. Some results given as binding are weak or reduced against the parent protein; the word gives no strength.

Protein sequences, listed by entry. Tags and fused reporters are not part of them.
UniProt P06537: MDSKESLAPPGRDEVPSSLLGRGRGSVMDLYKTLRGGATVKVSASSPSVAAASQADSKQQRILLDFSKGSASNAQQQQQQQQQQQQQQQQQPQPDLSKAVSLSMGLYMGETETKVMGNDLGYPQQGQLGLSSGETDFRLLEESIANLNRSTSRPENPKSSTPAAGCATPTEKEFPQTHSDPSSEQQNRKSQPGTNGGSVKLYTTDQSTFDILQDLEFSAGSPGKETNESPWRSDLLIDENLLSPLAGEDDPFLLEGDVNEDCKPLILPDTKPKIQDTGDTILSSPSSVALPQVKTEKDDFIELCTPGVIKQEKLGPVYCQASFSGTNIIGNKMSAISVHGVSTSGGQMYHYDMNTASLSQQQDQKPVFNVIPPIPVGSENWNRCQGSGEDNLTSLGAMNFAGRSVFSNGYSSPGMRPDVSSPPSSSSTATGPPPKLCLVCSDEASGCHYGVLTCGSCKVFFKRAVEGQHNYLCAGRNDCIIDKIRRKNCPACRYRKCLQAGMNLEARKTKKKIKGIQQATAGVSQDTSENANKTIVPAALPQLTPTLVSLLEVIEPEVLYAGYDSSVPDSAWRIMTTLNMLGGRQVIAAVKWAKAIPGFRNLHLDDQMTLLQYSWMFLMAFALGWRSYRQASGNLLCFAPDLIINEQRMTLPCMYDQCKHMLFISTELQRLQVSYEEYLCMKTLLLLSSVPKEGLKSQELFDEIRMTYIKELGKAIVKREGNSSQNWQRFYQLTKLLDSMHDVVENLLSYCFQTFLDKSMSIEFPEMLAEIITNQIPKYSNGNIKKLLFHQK
UniProt P57780: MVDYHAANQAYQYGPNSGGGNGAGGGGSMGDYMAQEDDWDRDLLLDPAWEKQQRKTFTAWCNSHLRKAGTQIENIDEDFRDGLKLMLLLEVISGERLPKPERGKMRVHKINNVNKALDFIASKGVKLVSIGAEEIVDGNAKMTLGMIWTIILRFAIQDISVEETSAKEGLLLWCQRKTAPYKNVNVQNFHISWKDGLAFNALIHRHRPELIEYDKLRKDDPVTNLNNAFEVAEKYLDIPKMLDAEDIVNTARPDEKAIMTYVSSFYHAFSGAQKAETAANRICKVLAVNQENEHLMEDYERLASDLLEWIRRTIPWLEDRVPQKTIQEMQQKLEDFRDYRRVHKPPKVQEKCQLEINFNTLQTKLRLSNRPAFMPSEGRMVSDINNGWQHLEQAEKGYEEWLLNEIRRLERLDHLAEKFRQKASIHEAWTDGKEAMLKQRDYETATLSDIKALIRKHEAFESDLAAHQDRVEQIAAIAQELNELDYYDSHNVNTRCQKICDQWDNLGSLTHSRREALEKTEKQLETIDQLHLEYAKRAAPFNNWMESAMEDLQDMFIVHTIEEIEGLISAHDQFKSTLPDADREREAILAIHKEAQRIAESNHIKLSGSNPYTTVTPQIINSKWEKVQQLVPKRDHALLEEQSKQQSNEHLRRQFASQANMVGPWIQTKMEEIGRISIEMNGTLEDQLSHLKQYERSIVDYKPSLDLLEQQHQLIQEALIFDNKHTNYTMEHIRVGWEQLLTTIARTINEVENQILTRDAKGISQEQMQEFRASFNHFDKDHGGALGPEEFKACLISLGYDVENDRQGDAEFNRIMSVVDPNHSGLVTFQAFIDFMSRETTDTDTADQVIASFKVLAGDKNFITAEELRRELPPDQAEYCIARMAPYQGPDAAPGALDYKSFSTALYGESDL

Molecular target: glucocorticoid receptor (mouse (endogenous in mpkCCD)) (UniProt P06537)
Test: co-IP; anti-GR antibody (sc-393232) added to 1 mg mpkCCD lysate (1% Triton X-100, 20 mM Tris, 150 mM NaCl), 16 h at 4°C, protein G Mag Sepharose beads 5 h at 4°C; immunoblot for Actn4; cells treated with vehicle or dDAVP (1 nM, 24 h); control IgG precipitate

Substance: α-actinin 4 (from UniProt P57780 1-912)
- binding: binds
